Measurements: patent US6992169B2 (Cyclacel Limited, priority 1998, dated 2006)
HELM strings list residues between dots; [ac] is acetyl, [am] amide, other brackets name non-standard units.

Experiment: general procedure: Fmoc solid-phase peptide synthesis; Fmoc-Lys(Boc)-[(4-(hydroxymethyl)phenoxyacetyl)-resin] (ABI 401425; 0.5 mmol/g) or Rink Amide AM resin (Novabiochem); FastMoc MonPrevPk programs; PyBOP/HOBt/DIEA for manual acylations
[1] = whole synthesis, l=200-300 nm, scale of the general procedure 0.1 mmol or 0.25 mmol

Substance: PEPTIDE1{C.R.Q.[Ile_bopen].K.[Ile_bopen].W.F.Q.N.R.R.M.K.W.K.K}|CHEM1{[CH2CO-4-Podo]}$PEPTIDE1,CHEM1,1:R3-1:R1$$$V2.0
- conjugation yield (conjugation step): 59%
- final HPLC purity (conjugation step, analytical RP-HPLC, Vydac 218TP54): purity>97%

Substance: [H-Glu-Gly-bAla]4-Lys2-Lys-bAla-Arg-Gln-Ile-Lys-Ile-Trp-Phe-Gln-Asn-Arg-Arg-Met-Lys-Trp-Lys-Lys-OH
- crude HPLC purity [1]: >89%

Substance: {[4[N-(2,4-Diamino-6-pteridinyl-methyl)-N-methylamino]benzoyl]-Glu-Gly-βAla}4-Lys2-Lys-βAla-Arg-Gln-Ile-Lys-Ile-Trp-Phe-Gln-Asn-Arg-Arg-Met-Lys-Trp-Lys-Lys-OH
- final HPLC purity (whole synthesis, 200-300 nm, scale of the general procedure 0.1 mmol or 0.25 mmol): purity>99%

Substance: {[4[N-(2,4-diamino-6-pteridinyl-methyl)-N-methylamino]benzoyl]-Glu-Gly-bAla}4-Lys2-Lys-bAla-Arg-Gln-Ile-Lys-Ile-Trp-Phe-Gln-Asn-Arg-Arg-Met-Lys-Trp-Lys-Lys-OH
- final HPLC purity [1]: purity>99%
- crude mass (whole synthesis, scale 0.025 mmol): 61 mg
